Measured values taken from the supplement of paper PMC3334620.
Over roughly 33,000 sequences, “E-score (-0.5 to 0.5)” has its median near -0.0034; the highest 2% begin near 0.25. The list shows a part of the results.

Target: T1, Yap3 (UniProt P38749)
T1 sequence: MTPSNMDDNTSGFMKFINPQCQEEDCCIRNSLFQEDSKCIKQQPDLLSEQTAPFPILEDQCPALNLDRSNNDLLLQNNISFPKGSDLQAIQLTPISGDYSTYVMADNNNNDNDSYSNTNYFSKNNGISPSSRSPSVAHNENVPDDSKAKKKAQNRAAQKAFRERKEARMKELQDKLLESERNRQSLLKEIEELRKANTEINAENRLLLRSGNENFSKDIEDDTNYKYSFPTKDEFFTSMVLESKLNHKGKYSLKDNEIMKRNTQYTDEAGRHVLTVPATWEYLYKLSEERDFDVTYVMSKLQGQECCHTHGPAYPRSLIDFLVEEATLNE
Assay: PBM E-score (8-mer binding enrichment) (E-score (-0.5 to 0.5)); higher = stronger / more preferred TF binding
Conditions: protein concentration: 100 nM; construct: GST-full length
Outline: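 Detection of bound protein used fluorescent anti-GST, with scans normalised by masliner. The proteins were GST-tagged yeast transcription factors applied at about 100-200 nM to universal all-10-mer Agilent arrays made double-stranded by primer extension. Each ungapped eight-base word, pooled with its reverse complement, was scored with an E-score from the Universal PBM Analysis Suite.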

| Sequence | PBM E-score |
| --- | --- |
| CTTGTCTC | -0.185 |
| CCATGCTC | -0.233 |
| CTCTGTGC | -0.0788 |
| CAAAAGAA | 0.232 |
| AAAGCCCC | -0.304 |
| AAGGAGCC | -0.201 |
| AAACTTTC | 0.0671 |
| AGGGGCGC | -0.189 |
| ATCTTTAA | 0.145 |
| ACTTATAT | 0.29 |
| ACAGGCGT | -0.237 |
| ACGGTTTA | 0.0171 |
| ACTTATCT | 0.126 |
| AGAGGCCG | -0.25 |
| ATATAAAA | 0.249 |
| CCGGCACA | -0.159 |
| GCATAACA | 0.157 |
| CGATCGAG | 0.00454 |
| ATTGATGC | 0.0347 |
| GACCTAGC | -0.0583 |
| GCGGTTAA | 0.112 |
| CTCGTGAA | 0.0772 |
| CCATCGGA | -0.201 |
| CACGAGAA | -0.0681 |
| GCTTTTAC | 0.0709 |

| Sequence | PBM E-score |
| --- | --- |
| GTGAACGA | 0.0444 |
| ACTCTAGA | 0.0228 |
| ATCTTGGA | -0.131 |
| ATAAACGA | 0.254 |
| CAACGACG | -0.105 |
| AGCGTGTG | 0.0438 |
| ACGAAGTC | -0.11 |
| ACACTCAT | -0.0139 |
| GCGGCCGC | -0.245 |
| CCCTAATC | -0.0713 |
| CATGCCCA | -0.321 |
| ACGAAAGG | 0.0876 |
| CAGACCGG | -0.16 |
| GCATGGAC | -0.174 |
| CTGAATCA | 0.0612 |
| GTTGTTTA | 0.273 |
| AGGCCAAC | -0.122 |
| CGAGACAC | -0.173 |
| AAAGCCGT | 0.0204 |
| CTGAATGA | 0.12 |
| ATCTTTTA | 0.14 |
| GCACGGGC | -0.26 |
| ACAGGGCC | -0.0904 |
| CGTGGACA | -0.141 |
| AACCGTTG | 0.146 |

| Sequence | PBM E-score |
| --- | --- |
| CGCATGCG | 0.00516 |
| ACGGTCGA | -0.0505 |
| AAAACTGC | 0.0136 |
| CTAGGAAC | -0.0179 |
| CTACAGCC | -0.114 |
| ATGATGTG | 0.00874 |
| ATAGGTCC | 0.093 |
| AACGTAAA | 0.2 |
| AACGGCGC | -0.0472 |
| CGTCCGAA | -0.0193 |
| GTCTTTTA | -0.078 |
| CACGGCAG | -0.0231 |
| CGTCAGAC | -0.0199 |
| AGATTTTC | 0.0151 |
| GACGTCAA | 0.152 |
| ACGCGTCT | -0.0276 |
| AGTGCCCG | -0.127 |
| CTGCGCTC | -0.206 |
| GCAAGTGC | -0.174 |
| ATAGAAGG | -0.147 |
| AGCCCCTG | -0.373 |
| AACCCTAA | 0.0159 |
| CACACTCA | 0.129 |
| CCGACGCC | -0.199 |
| AATAGGGT | -0.0163 |

| Sequence | PBM E-score |
| --- | --- |
| CCGACTGA | -0.0346 |
| GCCCTCGC | -0.153 |
| GTGTATAA | 0.045 |
| ATGTGGCG | 0.0147 |
| CCCGGGCC | -0.363 |
| ATACACTA | 0.161 |
| AGCCTCCC | -0.344 |
| TCGAGCGA | 0.0449 |
| CAAGTATG | 0.0554 |
| CAAATCAA | 0.267 |
| CCGCACAC | -0.15 |
| ACACAAAG | 0.173 |
| AATTGTCC | 0.141 |
| ACAGTACA | 0.102 |
| AGATCGGA | 0.00021 |
| CCTGATTA | 0.18 |
| CGAATCCG | 0.0591 |
| CACGCTCC | -0.28 |
| CAGATATA | 0.0738 |
| CCTTTAAC | 0.079 |
| AATCCTTA | -0.0214 |
| ATTCAACA | 0.0553 |
| GAAGTCAA | 0.0714 |
| AGCCTTTC | -0.157 |
| AAAAGCCT | -0.243 |

| Sequence | PBM E-score |
| --- | --- |
| ATAGTCAT | 0.0214 |
| ATTCGCGA | 0.00641 |
| CCCCCCCG | -0.486 |
| ACGGGCCA | -0.0718 |
| CAAAGGCC | -0.159 |
| CGCCGGCA | -0.0536 |
| CCGACCCA | -0.198 |
| CCCCTGCG | -0.303 |
| GACTGTGC | -0.129 |
| ATTGTACA | 0.0579 |
| TTATGCAA | 0.0592 |
| AAGTACGC | 0.0601 |
| ACGCTGGC | -0.0887 |
| AACAGTAC | 0.0883 |
| CTTGAGGC | -0.122 |
| GTGACAGA | -0.0285 |
| ACTGAACG | -0.0995 |
| GAAATCTA | 0.146 |
| AGCACAGA | 0.0779 |
| AGACTTTA | -0.181 |
| AGGGAATG | -0.0617 |
| ATGTCTGG | 0.0998 |
| AGAATTCT | 0.124 |
| CCTGTCGC | -0.0531 |
| AGACAGTG | -0.0416 |

Reprinted at random: six entries already listed

| Sequence | PBM E-score |
| --- | --- |
| AACGGCGC | -0.0472 |
| GACGTCAA | 0.152 |
| CATGCCCA | -0.321 |
| ATCTTTAA | 0.145 |
| CTAGGAAC | -0.0179 |
| ATTGTACA | 0.0579 |

Next records follow:

| Sequence | PBM E-score |
| --- | --- |
| CCTTTTTC | 0.141 |
| GTAGTTTA | 0.203 |
| GAATAGCA | 0.109 |
| AAAAAAAC | 0.151 |
| ACCCCGTA | 0.0378 |
| GAAACGAC | 0.123 |
| GCTGCACA | -0.104 |
| ACTTGAGG | -0.0703 |
| CAAGGACG | -0.26 |
| ACCTAACA | 0.109 |
| AGTTGGGG | 0.0985 |
| CAAAAGGA | -0.0326 |
| CGCACATA | -0.0836 |
| AGAGAGCT | -0.224 |
| CCAGGCCG | -0.152 |
| GACGAACA | -0.0459 |
| ATTCAAGA | -0.0517 |
| GGCAGAAA | 0.2 |
| CGCTAGTC | -0.344 |
| AAGCAATA | -0.00615 |
| ATAGGCCC | -0.14 |
| AACGGCTA | 0.104 |
| CTCGTCTA | -0.117 |
| AAGTACAC | 0.072 |
| GTCCTCAC | -0.0019 |

A different layout for some results above:
Sequence	PBM E-score
AAAAAAAC	0.151
ACTTGAGG	-0.0703
AGAGAGCT	-0.224
AAGCAATA	-0.00615
ATAGGCCC	-0.14

Following part:

| Sequence | PBM E-score |
| --- | --- |
| ACATTAAC | 0.015 |
| GTTTTTCA | 0.108 |
| ACGAGGAT | -0.125 |
| AGTTCCGC | 0.012 |
| AGCGTCCT | -0.156 |
| CTCCTTAC | 0.0321 |
| TGACTCAA | -0.0905 |
| ATCCAAAT | 0.0146 |
| ATGGGATA | 0.035 |
| GAAAACCA | -0.0204 |
| ATCGCATA | 0.143 |
| ACTGCTCA | 0.0439 |
| AGATTCCG | 0.0687 |
| GGTCCTTA | 0.0785 |
| GCGGGCCC | -0.33 |
| ATTCCCAA | 0.193 |
| CCCTCTTC | -0.231 |
| ACCGCCTA | -0.0887 |
| ACAGCACC | -0.199 |
| AGTTATGC | 0.166 |
| CCATTTTC | 0.167 |
| CATATTAA | 0.299 |
